{
  "source": "patent US11236042B2",
  "about": "“Methylmenthol derivative and cool-sensation imparter composition containing same” (TAKASAGO INTERNATIONAL CORPORATION, priority 2017, dated 2022)",
  "assay": "Sensory evaluation of 30 ppm aqueous solution by three flavorists",
  "type": "in vivo, human",
  "experimental": "The sensory evaluation was performed by comparing the exemplary compound (1-1) with the so far known comparative compounds 1 to 4. Comparative compounds 1, 3, and 4 were synthesized according to the method described in WO 2016/153011 A1, and comparative compound 2 was synthesized according to the method described in WO 2005/020897 A1. The exemplary compound (1-1) and comparative compounds 1 to 4 were separately prepared into a 30 ppm aqueous solution, and the aqueous solution was used to perform the evaluation.\nThe evaluation was performed by three flavorists. The aqueous solution was taken into the mouth and spat out after the mouth was rinsed, and intensity, persistence, and quality of a cool-feeling in the oral cavity were evaluated.\nA 30 ppm aqueous solution of the exemplary compound (1-2) was prepared and used to perform the evaluation.\nA 30 ppm aqueous solution of the exemplary compound (1-3) was prepared and used to perform the evaluation.\nA 30 ppm aqueous solution of the exemplary compound (1-5) was prepared and used to perform the evaluation.",
  "data": [
    {"smiles": "CC(C)C1CCC(C)(C)CC1C(=O)NCC(O)c1ccccc1", "note": "(stereo not shown) [Exemplary Compound 1-1, N-(2-hydroxy-2-phenylethyl)-2-isopropyl-5,5-dimethyl cyclohexane carboxamide]", "values": [
      {"measurement": "bitterness / miscellaneous tastes", "result": "less than those of the comparative compounds 2 to 4"},
      {"measurement": "burning and tingling feelings", "result": "weaker than those of the comparative compounds 1 to 4"},
      {"measurement": "quality of the cool-feeling", "result": "sharper and richer than those produced by the comparative compounds 1 to 4"}
    ]},
    {"smiles": "CC(C)C1CCC(C)(C)CC1C(=O)NC[C@@H](O)c1ccccc1", "note": "(stereo partly drawn) [Exemplary Compound 1-2, N—((S)-2-hydroxy-2-phenylethyl)-2-isopropyl-5,5-dimethyl cyclohexane carboxamide]", "values": [
      {"measurement": "bitterness / miscellaneous tastes", "result": "not felt"},
      {"measurement": "burning and tingling feelings", "result": "not felt"},
      {"measurement": "quality of the cool-feeling", "result": "sharp and rich"}
    ]},
    {"smiles": "CC(C)C1CCC(C)(C)CC1C(=O)NC[C@H](O)c1ccccc1", "note": "(stereo partly drawn) [Exemplary Compound 1-3, N—((R)-2-hydroxy-2-phenylethyl)-2-isopropyl-5,5-dimethyl cyclohexane carboxamide]", "values": [
      {"measurement": "bitterness / miscellaneous tastes", "result": "not felt"},
      {"measurement": "burning and tingling feelings", "result": "not felt"},
      {"measurement": "quality of the cool-feeling", "result": "sharp and rich"}
    ]},
    {"smiles": "CC(C)C1CCC(C)(C)CC1C(=O)NCC(=O)c1ccccc1", "note": "(stereo not shown) [Exemplary Compound 1-5, 2-isopropyl-5,5-dimethyl-N-(2-oxo-2-phenylethyl) cyclohexane carboxamide]", "values": [
      {"measurement": "burning and tingling feelings", "result": "hardly felt"}
    ]}
  ]
}
